# Values of other authors, collected in patent publication US11471445B2, “Compositions for the prevention and treatment of acute renal injury” (AKI Therapeutics ApS, priority 2017, dated 2022).
# For at least one compound, name, drawing or mass did not settle the structure.
# Key:
# [1] = test system: renal IRI; settings: rat, in vivo
# [2] = test system: ischemic stroke; settings: rat, after ischemic stroke
# [3] = test system: acute myocardial infarction; settings: rat
smiles,measurement,setting,value
"CC1=C(O)C(=O)C=C2C1=CC=C1[C@@]2(C)CC[C@@]2(C)[C@@H]3C[C@](C)(C(=O)O)CC[C@]3(C)CC[C@]12C [Celastrol, celastrol]",effect on renal IRI,[1],ameliorated renal IRI
same,"expression of p-JNK, p-c-Jun and NF-κB",[2],downregulated
same,neurological deficit and infarct sizes,[2],reduced neurological deficit and infarct sizes
same,infarct size and fibrosis,[3],reduces infarct size and fibrosis
